{"sequences": {"note": "Protein sequences, listed by entry. Tags and fused reporters are not part of them. Lines headed by an entry give the natural chain unless they say otherwise; changes in a name come on top.", "UniProt P18054": "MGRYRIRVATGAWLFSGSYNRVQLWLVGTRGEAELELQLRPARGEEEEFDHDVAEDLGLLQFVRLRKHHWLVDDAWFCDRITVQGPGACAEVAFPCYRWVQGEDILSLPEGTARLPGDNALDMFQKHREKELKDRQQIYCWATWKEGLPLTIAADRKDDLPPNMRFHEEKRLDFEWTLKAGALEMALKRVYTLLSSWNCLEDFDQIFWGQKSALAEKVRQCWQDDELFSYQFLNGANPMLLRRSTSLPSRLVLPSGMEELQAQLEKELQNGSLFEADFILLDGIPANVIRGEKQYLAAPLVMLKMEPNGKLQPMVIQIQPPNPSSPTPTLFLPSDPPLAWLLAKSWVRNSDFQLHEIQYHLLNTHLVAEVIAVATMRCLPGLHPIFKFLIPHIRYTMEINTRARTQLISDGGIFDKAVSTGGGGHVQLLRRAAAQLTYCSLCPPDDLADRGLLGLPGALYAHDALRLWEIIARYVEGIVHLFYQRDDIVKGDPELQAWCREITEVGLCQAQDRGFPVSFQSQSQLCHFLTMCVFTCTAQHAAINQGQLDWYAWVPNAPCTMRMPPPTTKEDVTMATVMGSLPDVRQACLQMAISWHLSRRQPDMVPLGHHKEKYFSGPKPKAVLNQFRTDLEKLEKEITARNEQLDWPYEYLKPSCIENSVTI"}, "source": "PubChem BioAssay AID1671190", "about": "(National Center for Advancing Translational Sciences (NCATS), 2021)", "note": "Values joined by “and” are separate entries in the source; they are usually repeats but may differ in a detail not shown here. Equal entries are not always repeated. Out of some 580,000 compounds screened, about 6,100 (1.1%) were called active. The shares of active, inactive and inconclusive entries below differ from those in the screen. Calls follow the shape of the dose curve; as a rule, active = well fitted inhibition curve with a large enough effect; inconclusive = small, poorly fitted or top-dose-only effect, or another doubt; inactive = no such curve, though single readings can be large or run the other way. Potencies beside an inconclusive call are fits to weak or partial responses and may not hold up. % is scaled to controls: 0 for no effect and ±100 for the full control effect; potency is read from the fitted curve at half-maximal effect.", "data": [{"molecular_target": "Polyunsaturated fatty acid lipoxygenase ALOX12 (Homo sapiens) (UniProt P18054)", "experiment": "Primary qHTS assay for inhibitors of human arachidonate 12S-lipoxygenase (ALOX12): Round 2", "conditions": "purified 12hLO, xylenol orange hydroperoxide absorbance; activity change, negative = inhibition: at 108 µM (top of the series) unless noted", "method_in_brief": "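Purified human 12hLO at 150 nM in 25 mM Hepes, 0.01% Triton X-100, pH 7.0, preincubated 15 min at room temperature with compound. Reaction started with 40 uM arachidonic acid, 30 min at room temperature. Hydroperoxide measured by Fe-xylenol orange, 573/405 nm absorbance ratio.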", "values": [{"smiles": "Cc1cc(C)nc(-n2nc(C)cc2NC(=O)CNC2CCCCC2)n1", "activity change, negative = inhibition": "inactive: -14.5%"}, {"smiles": "CCN(CC)C(=O)CN1C(=O)/C(=C/c2ccccc2)SC1=S", "activity change, negative = inhibition": "inactive: 0%"}, {"smiles": "O=C(NCc1ccccc1)c1ccc(S(=O)(=O)N2CCCCCC2)cc1", "Potency": "inconclusive: 35.5 µM [inhibitor, single point]"}, {"smiles": "C/C(CCc1ccc(O)cc1)=N\\NC(N)=S", "Potency": "inconclusive: 7.94 µM [inhibitor, full curve, poor fit]"}, {"smiles": "O=c1[nH]c(C2CCCN(Cc3ccccc3)C2)nn1-c1ccc(Cl)cc1", "note": "(centres undefined)", "Potency": "inconclusive: 14.1 µM [inhibitor, full curve]"}, {"smiles": "CN(CCOc1ccccc1)C(=S)Nc1ccc(OC(F)F)cc1", "Potency": "inconclusive: 100 µM [inhibitor, partial curve, poor fit]"}, {"smiles": "C[C@H](NC[C@H](O)CP(=O)(O)CC1CCCCC1)c1ccc(Cl)c(Cl)c1", "Potency": "inconclusive: 28.2 µM [inhibitor, single point] and inconclusive: 39.8 µM [inhibitor, single point]"}, {"smiles": "COC(=O)c1cc(OC)c(OC)cc1NC(=O)CCN1C(=O)C2CCCCC2C1=O", "note": "(centres undefined)", "activity change, negative = inhibition": "inactive: -6.32%"}, {"smiles": "O=C(Nc1ccc(Cl)cn1)c1ccc(-c2cc(Cl)ccc2Cl)o1", "activity change, negative = inhibition": "inactive: -9.65%"}, {"smiles": "Cc1ccccc1OCCCCc1c(C)n[nH]c1C", "Potency": "inconclusive: 44.7 µM [inhibitor, partial curve, poor fit]"}, {"smiles": "S=C(NCC1CCCO1)N1CCN(c2nc(-c3ccccc3)cs2)CC1", "note": "(centres undefined)", "activity change, negative = inhibition": "inactive: 0.764%"}, {"smiles": "OC[C@@H]1O[C@H](CN(Cc2cccc(Cl)c2)Cc2cccc(Cl)c2)C(N2CCOCC2)[C@@H]1O", "note": "(some centres undefined)", "Potency": "inconclusive: 25.1 µM [inhibitor, full curve, poor fit]"}, {"smiles": "CCCOc1ccc(-c2nc(C#N)c(N3CCN(C(=O)c4cccs4)CC3)o2)cc1", "activity change, negative = inhibition": "inactive: -0.037%"}, {"smiles": "O=C(NCc1ccccc1)C(=O)NCC(c1cccs1)S(=O)(=O)c1ccccc1", "note": "(centres undefined)", "Potency": "inconclusive: 141 µM [inhibitor, partial curve, poor fit]"}, {"smiles": "CN(C)c1ccc(C2C=C(c3ccc(Cl)cc3OC(F)F)Nc3ncnn32)cc1", "note": "(centres undefined)", "Potency": "inconclusive: 112 µM [inhibitor, single point]"}, {"smiles": "CCOC(=O)c1ccccc1NC(=O)C1CSC2(C)CCC(=O)N12", "note": "(centres undefined)", "Potency": "inconclusive: 3.16 µM [inhibitor, full curve, poor fit]"}, {"smiles": "Cc1nccnc1N1CCC(N2CCCC(C(=O)NCCc3ccccc3)C2)CC1", "note": "(centres undefined)", "activity change, negative = inhibition": "inactive: 27.7%"}, {"smiles": "COc1cc(OC)c(OC)cc1CN1CCCC(C(=O)N2CCCCCC2)C1", "note": "(centres undefined)", "Potency": "inconclusive: 0.398 µM [inhibitor, full curve, poor fit]"}, {"smiles": "COc1cc(C#N)ccc1OC(C)C(=O)c1ccc(F)cc1", "note": "(centres undefined)", "Potency": "inconclusive: 56.2 µM [inhibitor, partial curve, poor fit]"}, {"smiles": "COc1cccc(C=NC=Nc2cccc(OC)c2)c1", "Potency": "inconclusive: 100 µM [inhibitor, single point]"}, {"smiles": "Cc1ccc(C2CC(=O)N3CN(Cc4ccccc4)CSC3=C2C#N)cc1", "note": "(centres undefined)", "Potency": "active: 5.62 µM"}, {"smiles": "Cc1ccc(S(=O)(=O)N2CCCC(C(=O)NC3=NCCS3)C2)cc1", "note": "(centres undefined)", "Potency": "inconclusive: 28.2 µM [inhibitor, partial curve, poor fit]"}, {"smiles": "CCN(C(=O)CSc1nnc(-c2c[nH]c3ccccc23)n1C1CC1)C1CCS(=O)(=O)C1", "note": "(centres undefined)", "Potency": "inconclusive: 158 µM [inhibitor, partial curve, poor fit]"}, {"smiles": "COc1cccc(CNC(=O)N2CCC(Oc3ncccc3C(=O)N(C)C)C2)c1", "note": "(centres undefined)", "activity change, negative = inhibition": "inactive: 2.13%"}, {"smiles": "O=C1c2ccccc2C(Nc2ccc3c(c2)OCO3)N1Cc1ccc2c(c1)OCO2", "note": "(centres undefined)", "activity change, negative = inhibition": "inactive: -22%"}, {"smiles": "Cc1ccc(-c2nc3ccc(C(=O)N4CCC(CC(=O)NCCN5CCOCC5)CC4)cc3o2)cc1", "activity change, negative = inhibition": "inactive: -1.66%"}, {"smiles": "CCCSc1ccc([C@@H]2[C@H]3C(=O)N(CC)C(=O)[C@H]3[C@]3(C(=O)OC)CCCCN23)cc1", "Potency": "inconclusive: 39.8 µM [inhibitor, partial curve, poor fit]"}, {"smiles": "CN(C)CCCn1c(-c2ccccc2)nc(=S)c2c1CCCC2", "activity change, negative = inhibition": "inactive: -8.8%"}, {"smiles": "Cc1ccc(C(=O)Oc2coc(CSc3nnc(NC(=O)c4cccs4)s3)cc2=O)cc1C", "Potency": "inconclusive: 56.2 µM [inhibitor, partial curve, poor fit]"}, {"smiles": "CCOC(=O)C1=C(C)NC(=O)NC1C1CC=CCC1", "note": "(centres undefined)", "activity change, negative = inhibition": "inactive: -14.1%"}, {"smiles": "CCN(CC)CCCOC(=O)c1ccc(OC)cc1O", "Potency": "inconclusive: 15.8 µM [inhibitor, partial curve, poor fit]"}, {"smiles": "CSCCCNC(=S)NC1CCSc2ccccc21", "note": "(centres undefined)", "Potency": "inconclusive: 44.7 µM [inhibitor, partial curve, poor fit]"}, {"smiles": "Cc1c(C(=O)NCCSCc2ccc(F)cc2)cnn1-c1ccc(Cl)cc1", "Potency": "inconclusive: 56.2 µM [inhibitor, partial curve, poor fit]"}, {"smiles": "COc1ccccc1-c1cc(C(=O)Nc2cc(C)nn2-c2ccccc2)no1", "activity change, negative = inhibition": "inactive: -27.5%"}, {"smiles": "Cc1ccc(C)c(SCC(=O)Nc2cc(S(=O)(=O)N3CCOCC3)ccc2C)c1", "Potency": "inconclusive: 44.7 µM [inhibitor, partial curve, poor fit]"}, {"smiles": "COc1ccc([C@H]2N[C@]3(CCCN(Cc4ccc(F)cc4)C3=O)[C@H]3C(=O)N(C)C(=O)[C@@H]23)cc1", "Potency": "inconclusive: 15.8 µM [inhibitor, partial curve, poor fit]"}, {"smiles": "CCC(=O)Oc1cccc(C(=O)Nc2ccc(-c3nc4ccccc4o3)cc2)c1", "Potency": "inconclusive: 31.6 µM [inhibitor, partial curve, poor fit]"}, {"smiles": "CCOC(=O)C1=C(c2ccccc2)OC(N)=C(C#N)C1c1ccncc1", "note": "(centres undefined)", "Potency": "inconclusive: 10 µM [inhibitor, partial curve, poor fit]"}, {"smiles": "CCc1cnc2c(c1SCC(=O)c1ccc(Cl)cc1)c(=O)n(C)c(=O)n2C", "activity change, negative = inhibition": "inactive: -12.2%"}, {"smiles": "CC(=O)Oc1ccc2nc(-c3cccs3)oc(=O)c2c1", "Potency": "inconclusive: 39.8 µM [inhibitor, partial curve, poor fit]"}, {"smiles": "COc1cc(/C=C/c2cc(C(=O)O)c3ccccc3n2)cc(OC)c1O", "Potency": "inconclusive: 44.7 µM [inhibitor, partial curve, poor fit]"}, {"smiles": "CS(=O)(=O)c1ccc(NCCc2ccc(S(N)(=O)=O)cc2)c([N+](=O)[O-])c1", "activity change, negative = inhibition": "inactive: 11.3%"}, {"smiles": "COc1ccc(Nc2oc(-c3ccccc3Cl)nc2C#N)cc1", "Potency": "inconclusive: 2.24 µM [inhibitor, full curve, poor fit]"}, {"smiles": "CC[C@]12c3[nH]c4cc(CCC(=O)N(C)C)ccc4c3CCN1C(=O)[C@@H](CC(=O)NCc1cccc(C(F)(F)F)c1)C[C@@H]2C(=O)N1CCN(C(=O)C2CC2)CC1", "Potency": "inconclusive: 89.1 µM [inhibitor, partial curve, poor fit]"}, {"smiles": "CCN(CC)CCCNC(=S)N1CCN(c2nc(-c3ccc(F)cc3)cs2)CC1", "Potency": "inconclusive: 70.8 µM [inhibitor, partial curve, poor fit]"}, {"smiles": "COc1ccccc1NC(C)=[N+](C)CCNS(=O)(=O)c1ccc(Cl)cc1", "Potency": "inconclusive: 35.5 µM [inhibitor, partial curve, poor fit]"}, {"smiles": "CCC1Nc2ncnc(N3CCOCC3)c2N(Cc2ccc(OC)cc2)C1=O", "note": "(centres undefined)", "activity change, negative = inhibition": "inactive: 5.22%"}, {"smiles": "COc1ccc(OC2C(=O)N(Cc3ccc(F)cc3)C2c2ccc(OC)c(OC)c2)cc1", "note": "(centres undefined)", "Potency": "inconclusive: 44.7 µM [inhibitor, partial curve, poor fit]"}, {"smiles": "c1ccc(Cc2nn3c(COc4ccccc4)nnc3s2)cc1", "Potency": "inconclusive: 35.5 µM [inhibitor, partial curve]"}, {"smiles": "Cc1nc(-c2ccc(Cl)cc2)n(CC(=O)Nc2cccc(C(F)(F)F)c2)c(=O)c1CCO", "Potency": "inconclusive: 28.2 µM [inhibitor, single point]"}, {"smiles": "CCCCN(C(=O)c1cc(-c2ccco2)nc2ccccc12)c1c(N)n(CCCC)c(=O)[nH]c1=O", "Potency": "inconclusive: 39.8 µM [inhibitor, partial curve, poor fit]"}, {"smiles": "CCOc1cc(/C=C2\\C(=N)N3N=C(S(=O)(=O)CC)SC3=NC2=O)ccc1OC(=O)c1ccco1", "Potency": "inconclusive: 70.8 µM [inhibitor, partial curve, poor fit]"}, {"smiles": "COc1ccccc1C(=O)NN1C(=O)C2C3C=CC(O3)C2C1=O", "note": "(centres undefined)", "Potency": "inconclusive: 126 µM [inhibitor, single point]"}, {"smiles": "N#Cc1cccc(N=Cc2c(O)ccc3ccccc23)c1", "activity change, negative = inhibition": "inactive: -13.3%"}, {"smiles": "COc1cccc(NC(=O)CN(C)C(=O)c2cccc(S(=O)(=O)N3CCN(c4ccccc4)CC3)c2)c1", "activity change, negative = inhibition": "inactive: 122%"}, {"smiles": "Cc1cccc(C(=O)N2CCCC(c3nc4ccccc4[nH]3)C2)c1", "note": "(centres undefined)", "Potency": "inconclusive: 12.6 µM [inhibitor, full curve, poor fit]"}, {"smiles": "CCOc1ccccc1NC(=O)C(CC)Sc1nc2ccncc2[nH]1", "note": "(centres undefined)", "Potency": "inconclusive: 4.47 µM [inhibitor, full curve]"}, {"smiles": "COc1ccc(NC(=O)CN2CCc3ccccc3C2)c(OC)c1", "Potency": "inconclusive: 22.4 µM [inhibitor, single point]"}, {"smiles": "C1CC(OCC2CC2)CN1", "note": "(centres undefined)", "activity change, negative = inhibition": "inactive: 26.7%"}, {"smiles": "CCN(CC(=O)NC(C)(C)C)Cc1nc(-c2ccccc2)oc1C", "activity change, negative = inhibition": "inactive: -12%"}, {"smiles": "COc1ccc(NC(=O)N(C)[C@H]2C[C@H]3c4[nH]c5ccc(-c6ccc(OC)cc6)cc5c4CCN3C[C@H]2[C@H](C)O)cc1", "Potency": "inconclusive: 39.8 µM [inhibitor, single point]"}, {"smiles": "CCOc1cc(-c2n[nH]c(=S)n2Cc2ccccc2)ccc1OC(F)F", "Potency": "inconclusive: 35.5 µM [inhibitor, partial curve]"}, {"smiles": "O=C(O)c1cc(-c2cccc(F)c2)no1", "Potency": "inconclusive: 5.62 µM [inhibitor, full curve, poor fit]"}, {"smiles": "O=C(COc1ccc(Cl)cc1Cl)NCCc1csc(-c2ccncc2)n1", "activity change, negative = inhibition": "inactive: -6.26%"}]}]}
